Results on four compounds are retold here after patent US6818646B2 (priority 2000, dated 2004).

Molecules are shown by their SMILES. pIC50: −log10 of the molar value. Structures were worked out from names or drawings and are uncertain.

The assay deals with PDEV (Homo sapiens, UniProt O76074). The assay can be described thus: PDE assay: inhibition of PDEV isolated from human tissue. Particulars: PDEV inhibitory activity. Format: biochemical.
One may read the pIC50 as the IC50 on a negative log10 scale, so that one unit is a factor of ten. The compound `Cc1ccc(-c2ccc(C(=O)N3Cc4c([nH]c5ccccc5c4=O)C3c3ccc4c(c3)OCO4)o2)cc1` (stereo not shown) showed a pIC50 of 8.40.

`O=C(c1ccc(-c2ccc3c(c2)OCO3)o1)N1Cc2c([nH]c3ccccc3c2=O)C1c1ccc2c(c1)OCO2` (stereo not shown) had a negative logarithm of the IC50 (pIC50) of 8.71.

In turn, `O=C(c1ccc(-c2cccc([N+](=O)[O-])c2)o1)N1Cc2c([nH]c3ccccc3c2=O)C1c1ccc2c(c1)OCO2` (stereo not shown) gave a pIC50 of 9.09.

In turn, `N#Cc1ccc(-c2ccc(C(=O)N3Cc4c([nH]c5ccccc5c4=O)C3c3ccc4c(c3)OCO4)o2)cc1` (stereo not shown) showed a pIC50 of 8.92.
